In PubChem BioAssay AID248 (DTP/NCI, 2004):
The list does not hold the whole screen: it gathers tests that were run many times, whatever their T/C, doses with no T/C, and many T/C values between a quarter and a half above the control. Other doses and runs of a compound stand elsewhere. T/C is the treated group as % of the vehicle group. Some doses have a count of surviving animals in place of a T/C: the source holds a T/C of zero for them, seemingly a mark for toxic or unscored doses. Some doses without a T/C left all or most animals alive at the check, yet need not have been tolerated: survival well below the control is almost never listed, so the zero probably covers shortened survival too. Survivors were counted at the toxicity check, usually on the fifth day, unless a day is given; later deaths do not show. Schedule codes are those of the source, taken here to give the interval after Q, in days (D) or hours (H), and the number of doses after X. Some schedules carry Z or #; the key to these is not given. For survival time, this PubChem deposit counts one and a half times the control or more as active, and values a quarter to a half above the control carry no call in these data; other NCI protocols may use other cut-offs. Some T/C values carry the count of animals alive at the toxicity check (mostly the fifth day); without a count, all were alive then.

System: L1210 leukemia ip in BDF1 mice, survival T/C
Experiment: NCI In Vivo Anticancer Drug Screen. Data for tumor model L1210 Leukemia (intraperitoneal) in B6D2F1 (BDF1) mice
Details: T/C endpoint: mean survival time, higher T/C = longer survival
[1] = dose: 400.0 mg/kg/injection, schedule: Q04DX003 (ip), vehicle: acetone
[2] = dose: 400.0 mg/kg/injection, schedule: Q04DX002 (ip), vehicle: Klucel (hydroxypropylcellulose) (HPC)
[3] = dose: 400.0 mg/kg/injection, schedule: Q01DX009 (ip), vehicle: saline with Tween-80
[4] = dose: 400.0 mg/kg/injection, schedule: Q01DX001 (ip), vehicle: carboxymethylcellulose (CMC)

In the case of CN(N=O)C(=O)NC(=O)N(C)N=O, the T/C (dose: 9.0 mg/kg/injection, schedule: Q01DX Z (ip), vehicle: carboxymethylcellulose (CMC)) is reported as 132 % of control [5 of 6 alive], the T/C (dose: 37.0 mg/kg/injection, schedule: Q01DX Z (ip), vehicle: carboxymethylcellulose (CMC)) is reported as 137 % of control and the survivor count (dose: 100.0 mg/kg/injection, schedule: Q01DX Z (ip), vehicle: carboxymethylcellulose (CMC)) is reported as 5 of 6. The survivor count (dose: 150.0 mg/kg/injection, schedule: Q01DX Z (ip), vehicle: carboxymethylcellulose (CMC)) was 5 of 6, the survivor count (dose: 200.0 mg/kg/injection, schedule: Q01DX Z (ip), vehicle: carboxymethylcellulose (CMC)) was 0 of 6 and the survivor count (dose: 216.0 mg/kg/injection, schedule: Q01DX001 (ip), vehicle: carboxymethylcellulose (CMC)) was 0 of 10. For the same compound, the survivor count (dose: 432.0 mg/kg/injection, schedule: Q01DX001 (ip), vehicle: carboxymethylcellulose (CMC)) was 0 of 10.
In the case of CCN(CC)CCn1cnc2cc([N+](=O)[O-])ccc21, the survivor count (dose: 80.0 mg/kg/injection, schedule: Q01DX001 (ip), vehicle: Klucel (hydroxypropylcellulose) (HPC)) is reported as 3 of 6, the survivor count (dose: 100.0 mg/kg/injection, schedule: Q01DX001 (ip), vehicle: Klucel (hydroxypropylcellulose) (HPC)) is reported as 0 of 6 and the survivor count (dose: 200.0 mg/kg/injection, schedule: Q01DX001 (ip), vehicle: Klucel (hydroxypropylcellulose) (HPC)) is reported as 1 of 6. For the same compound, the survivor count (dose: 400.0 mg/kg/injection, schedule: Q01DX001 (ip), vehicle: Klucel (hydroxypropylcellulose) (HPC)) was 0 of 6.
CC(=O)OC(C)C(C)Br (stereo not drawn) was tested, and the survivor count (dose: 200.0 mg/kg/injection, schedule: Q04DX002 (ip), vehicle: Klucel (hydroxypropylcellulose) (HPC)) was 3 of 3 and the survivor count (dose: 400.0 mg/kg/injection, schedule: Q01DX001 (ip), vehicle: acetone) was 2 of 6.
For CC1=C(C)CC(c2ccccc2)C(C(=O)O)C1 (stereo not drawn), the survivor count (dose: 600.0 mg/kg/injection, schedule: Q01DX001 (ip), vehicle: other) was 0 of 6.
COC(OC)C1OC(c2ccccc2)OC2COC(c3ccccc3)OC21 (stereo not drawn) was tested, and the survivor count (dose: 100.0 mg/kg/injection, schedule: Q04DX003 (ip), vehicle: saline with Tween-80) was 6 of 6, the survivor count (dose: 200.0 mg/kg/injection, schedule: Q04DX003 (ip), vehicle: saline with Tween-80) was 6 of 6 and the survivor count (dose: 400.0 mg/kg/injection, schedule: Q04DX003 (ip), vehicle: saline with Tween-80) was 6 of 6.
In the case of CCN1N=Nc2cccc3cccc1c23, the survivor count [1] is reported as 0 of 6.
O=C(O)C1C(C(=O)O)C2(c3ccccc3)c3ccccc3C12 (stereo not drawn) was tested, and the survivor count (dose: 75.0 mg/kg/injection, schedule: Q01DX001 (ip), vehicle: other) was 1 of 6, the survivor count (dose: 150.0 mg/kg/injection, schedule: Q01DX001 (ip), vehicle: other) was 0 of 6 and the survivor count (dose: 300.0 mg/kg/injection, schedule: Q01DX001 (ip), vehicle: other) was 1 of 6.
With CN1CCC(C=C2c3ccccc3CCc3ccccc32)C1 (stereo not drawn) the survivor count (dose: 50.0 mg/kg/injection, schedule: Q01DX009 (ip), vehicle: saline) was 6 of 6.
Cc1cccc(Cl)c1NC(=O)c1c(Cl)c(Cl)c(Cl)c(Cl)c1C(=O)O was tested, and the survivor count [2] was 3 of 3.
For COc1ccc2c(c1)CC(=CO)CC2=O.COc1ccc2c(c1)CC/C(=C/O)C2=O.[Cu], the survivor count [3] was 1 of 6.
For CCOC(=O)N1CCC2(CC1)CC(=O)N(N1CCCCCC1)C2=O, the survivor count [2] was 1 of 3.
For C[Si]1(C)CCCSC1, the survivor count (dose: 100.0 mg/kg/injection, schedule: Q01DX001 (ip), vehicle: saline) was 3 of 6, the survivor count (dose: 200.0 mg/kg/injection, schedule: Q01DX001 (ip), vehicle: saline) was 0 of 6 and the survivor count (dose: 400.0 mg/kg/injection, schedule: Q01DX001 (ip), vehicle: saline) was 0 of 6.
For CC[N+](CC)(CC)CCCCCC[N+](CC)(CC)CC, the survivor count (dose: 25.0 mg/kg/injection, schedule: Q01DX009 (ip), vehicle: water) was 0 of 6, the survivor count (dose: 25.0 mg/kg/injection, schedule: Q04DX003 (ip), vehicle: saline) was 0 of 6 and the survivor count (dose: 50.0 mg/kg/injection, schedule: Q01DX009 (ip), vehicle: water) was 0 of 6. For the same compound, the survivor count (dose: 100.0 mg/kg/injection, schedule: Q04DX003 (ip), vehicle: water) was 0 of 6, the survivor count (dose: 200.0 mg/kg/injection, schedule: Q04DX003 (ip), vehicle: water) was 0 of 6 and the survivor count (dose: 400.0 mg/kg/injection, schedule: Q04DX003 (ip), vehicle: water) was 0 of 6.
In the case of C[C@]12CC[C@H]3[C@@H](CC[C@]4(O)C[C@@H](O)CC[C@]34C=O)[C@@]1(O)CC[C@@H]2C1=CC(=O)OC1, the survivor count (dose: 200.0 mg/kg/injection, schedule: Q01DX009 (ip), vehicle: carboxymethylcellulose (CMC)) is reported as 3 of 6, the survivor count [4] is reported as 2 of 6 and the survivor count (dose: 400.0 mg/kg/injection, schedule: Q01DX009 (ip), vehicle: carboxymethylcellulose (CMC)) is reported as 3 of 6. The survivor count (dose: 600.0 mg/kg/injection, schedule: Q04DX003 (ip), vehicle: Klucel (hydroxypropylcellulose) (HPC)) was 6 of 6.
In the case of C/C=C/C=C\COC(=O)C1CCCC1, the T/C (dose: 400.0 mg/kg/injection, schedule: Q04DX002 (ip), vehicle: saline) is reported as 128 % of control.
In the case of OCN(CO)c1ccc2c(c1)Cc1cc(F)ccc1-2, the survivor count [1] is reported as 1 of 6.
C[N+]1(C)C2CCC(OCc3ccccc3)C1COC2 (stereo not drawn) was tested, and the survivor count (dose: 300.0 mg/kg/injection, schedule: Q01DX001 (ip), vehicle: saline) was 1 of 6.
CCOC(=O)NNC(=O)O was tested, and the survivor count (dose: 200.0 mg/kg/injection, schedule: Q01DX001 (ip), vehicle: carboxymethylcellulose (CMC)) was 0 of 4 and the survivor count [4] was 0 of 4.
With CS(=O)(=O)OCc1c(O)c2c(c(O)c1COS(C)(=O)=O)C(=O)C=CC2=O the survivor count (dose: 100.0 mg/kg/injection, schedule: Q01DX009 (ip), vehicle: water) was 1 of 6, the survivor count (dose: 200.0 mg/kg/injection, schedule: Q01DX009 (ip), vehicle: water) was 0 of 6 and the survivor count (dose: 400.0 mg/kg/injection, schedule: Q01DX009 (ip), vehicle: water) was 0 of 6.
O=S(=O)(c1ccc(O)c(F)c1)c1ccc(O)c(F)c1 was tested, and the survivor count (dose: 400.0 mg/kg/injection, schedule: Q04DX002 (ip), vehicle: gum acacia) was 3 of 3.
In the case of Cc1cccc(NC(=O)c2ccccc2)n1, the survivor count (dose: 100.0 mg/kg/injection, schedule: Q01DX009 (ip), vehicle: saline with Tween-80) is reported as 3 of 6, the survivor count (dose: 200.0 mg/kg/injection, schedule: Q01DX009 (ip), vehicle: saline with Tween-80) is reported as 2 of 6 and the survivor count [3] is reported as 0 of 6.
In the case of Cc1cc(S(=O)(=O)c2cc(C)c(O)c(C(=O)O)c2)cc(C(=O)O)c1O, the survivor count (dose: 400.0 mg/kg/injection, schedule: Q04DX002 (ip), vehicle: carboxymethylcellulose (CMC)) is reported as 1 of 3.
For CC(C)CCNCC(C)(C)OC(=O)c1ccc(N)cc1, the survivor count (dose: 75.0 mg/kg/injection, schedule: Q01DX001 (ip), vehicle: acetone) was 1 of 6, the survivor count (dose: 150.0 mg/kg/injection, schedule: Q01DX001 (ip), vehicle: acetone) was 0 of 6 and the survivor count (dose: 300.0 mg/kg/injection, schedule: Q01DX001 (ip), vehicle: acetone) was 0 of 6.
In the case of CN1CCC(CNC(=O)CCCCCCCCC(=O)NCC2(c3ccccc3)CCN(C)CC2)(c2ccccc2)CC1, the survivor count (dose: 10.0 mg/kg/injection, schedule: Q01DX Z (ip), vehicle: saline) is reported as 3 of 6, the survivor count (dose: 10.0 mg/kg/injection, schedule: Q04DX003 (ip), vehicle: saline with Tween-80) is reported as 5 of 6 and the survivor count (dose: 20.0 mg/kg/injection, schedule: Q04DX003 (ip), vehicle: saline with Tween-80) is reported as 0 of 6. For the same compound, the survivor count (dose: 30.0 mg/kg/injection, schedule: Q01DX Z (ip), vehicle: saline) was 0 of 6, the survivor count (dose: 100.0 mg/kg/injection, schedule: Q01DX Z (ip), vehicle: saline) was 0 of 6 and the survivor count (dose: 300.0 mg/kg/injection, schedule: Q01DX Z (ip), vehicle: saline) was 0 of 6.
For Cc1cc(C)c(C(=O)OC(C)CNC2CCCCC2)c(C)c1 (stereo not drawn), the survivor count (dose: 300.0 mg/kg/injection, schedule: Q01DX001 (ip), vehicle: carboxymethylcellulose (CMC)) was 0 of 6.
In the case of CC1(C)N=C(N)N=C(N)N1c1cc(Cl)cc(CCCCc2ccc(S(=O)(=O)F)cc2)c1, the survivor count (dose: 200.0 mg/kg/injection, schedule: Q04DX003 (ip), vehicle: Klucel (hydroxypropylcellulose) (HPC)) is reported as 5 of 6 and the survivor count (dose: 400.0 mg/kg/injection, schedule: Q04DX003 (ip), vehicle: Klucel (hydroxypropylcellulose) (HPC)) is reported as 1 of 6.
